No constants are given. Whether binding was seen depends on the method and setting. In cells and extracts the contact can be indirect. Some entries that bind do so weakly or less than the wild type.
Legend:
[1] = molecular target: hepatoma-derived growth factor-related protein 2 (human (endogenous in HEK 293T)) (UniProt Q7Z4V5); assay: co-sedimentation; 5–20% sucrose density gradient ultracentrifugation (250,000 x g, 16 h, 4 °C) of 1.3 mg nuclear extract of HRP2 wild-type or HRP2 knockout 293T cells; 21 fractions of 500 μL analysed by immunoblot
[2] = molecular target: hepatoma-derived growth factor-related protein 2 (human (endogenous in HEK 293T)) (UniProt Q7Z4V5); assay: co-IP; endogenous proteins of HEK 293T whole-cell lysate (M-PER, benzonase-treated); IP antibody on Protein G Dynabeads, 4 °C overnight; 150 mM NaCl; immunoblot
[3] = molecular target: hepatoma-derived growth factor-related protein 2 (human (endogenous in HEK 293T)) (UniProt Q7Z4V5); assay: co-IP; endogenous proteins of HEK 293T whole-cell lysate (M-PER, benzonase-treated); IP antibody on Protein G Dynabeads; 500 mM NaCl; immunoblot
[4] = molecular target: heterochromatin protein 1 alpha (human (endogenous in HEK 293T)) (UniProt P45973); assay: co-IP; α-HP1α on Protein G Dynabeads; whole-cell lysates of HRP2 wild-type and HRP2 knockout 293T cells; immunoblot

The chains behind the UniProt entries cited, without tags or fusion partners.
UniProt Q7Z4V5: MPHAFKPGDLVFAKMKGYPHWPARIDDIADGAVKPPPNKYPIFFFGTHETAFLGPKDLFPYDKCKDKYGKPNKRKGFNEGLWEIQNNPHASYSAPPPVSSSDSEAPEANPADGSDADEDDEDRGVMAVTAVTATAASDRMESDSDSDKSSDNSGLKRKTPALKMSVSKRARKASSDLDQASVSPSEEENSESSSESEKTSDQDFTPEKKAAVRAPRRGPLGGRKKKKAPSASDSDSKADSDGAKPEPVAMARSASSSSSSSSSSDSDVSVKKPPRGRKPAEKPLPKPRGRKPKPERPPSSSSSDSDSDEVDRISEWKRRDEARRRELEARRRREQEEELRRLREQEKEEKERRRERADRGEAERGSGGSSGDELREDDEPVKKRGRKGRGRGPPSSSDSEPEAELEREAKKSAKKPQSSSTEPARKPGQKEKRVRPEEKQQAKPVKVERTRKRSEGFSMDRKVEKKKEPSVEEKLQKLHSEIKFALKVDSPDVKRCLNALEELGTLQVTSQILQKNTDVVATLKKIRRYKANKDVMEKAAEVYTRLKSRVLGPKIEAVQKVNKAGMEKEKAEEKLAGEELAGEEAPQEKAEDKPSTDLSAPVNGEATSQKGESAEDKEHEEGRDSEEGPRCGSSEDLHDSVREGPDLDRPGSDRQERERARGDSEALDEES
UniProt P45973: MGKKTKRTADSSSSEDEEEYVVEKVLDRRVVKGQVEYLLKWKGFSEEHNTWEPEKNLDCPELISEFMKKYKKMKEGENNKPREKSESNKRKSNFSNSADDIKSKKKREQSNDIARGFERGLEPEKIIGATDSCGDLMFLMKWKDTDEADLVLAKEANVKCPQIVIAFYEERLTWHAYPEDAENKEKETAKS
UniProt Q9UK61: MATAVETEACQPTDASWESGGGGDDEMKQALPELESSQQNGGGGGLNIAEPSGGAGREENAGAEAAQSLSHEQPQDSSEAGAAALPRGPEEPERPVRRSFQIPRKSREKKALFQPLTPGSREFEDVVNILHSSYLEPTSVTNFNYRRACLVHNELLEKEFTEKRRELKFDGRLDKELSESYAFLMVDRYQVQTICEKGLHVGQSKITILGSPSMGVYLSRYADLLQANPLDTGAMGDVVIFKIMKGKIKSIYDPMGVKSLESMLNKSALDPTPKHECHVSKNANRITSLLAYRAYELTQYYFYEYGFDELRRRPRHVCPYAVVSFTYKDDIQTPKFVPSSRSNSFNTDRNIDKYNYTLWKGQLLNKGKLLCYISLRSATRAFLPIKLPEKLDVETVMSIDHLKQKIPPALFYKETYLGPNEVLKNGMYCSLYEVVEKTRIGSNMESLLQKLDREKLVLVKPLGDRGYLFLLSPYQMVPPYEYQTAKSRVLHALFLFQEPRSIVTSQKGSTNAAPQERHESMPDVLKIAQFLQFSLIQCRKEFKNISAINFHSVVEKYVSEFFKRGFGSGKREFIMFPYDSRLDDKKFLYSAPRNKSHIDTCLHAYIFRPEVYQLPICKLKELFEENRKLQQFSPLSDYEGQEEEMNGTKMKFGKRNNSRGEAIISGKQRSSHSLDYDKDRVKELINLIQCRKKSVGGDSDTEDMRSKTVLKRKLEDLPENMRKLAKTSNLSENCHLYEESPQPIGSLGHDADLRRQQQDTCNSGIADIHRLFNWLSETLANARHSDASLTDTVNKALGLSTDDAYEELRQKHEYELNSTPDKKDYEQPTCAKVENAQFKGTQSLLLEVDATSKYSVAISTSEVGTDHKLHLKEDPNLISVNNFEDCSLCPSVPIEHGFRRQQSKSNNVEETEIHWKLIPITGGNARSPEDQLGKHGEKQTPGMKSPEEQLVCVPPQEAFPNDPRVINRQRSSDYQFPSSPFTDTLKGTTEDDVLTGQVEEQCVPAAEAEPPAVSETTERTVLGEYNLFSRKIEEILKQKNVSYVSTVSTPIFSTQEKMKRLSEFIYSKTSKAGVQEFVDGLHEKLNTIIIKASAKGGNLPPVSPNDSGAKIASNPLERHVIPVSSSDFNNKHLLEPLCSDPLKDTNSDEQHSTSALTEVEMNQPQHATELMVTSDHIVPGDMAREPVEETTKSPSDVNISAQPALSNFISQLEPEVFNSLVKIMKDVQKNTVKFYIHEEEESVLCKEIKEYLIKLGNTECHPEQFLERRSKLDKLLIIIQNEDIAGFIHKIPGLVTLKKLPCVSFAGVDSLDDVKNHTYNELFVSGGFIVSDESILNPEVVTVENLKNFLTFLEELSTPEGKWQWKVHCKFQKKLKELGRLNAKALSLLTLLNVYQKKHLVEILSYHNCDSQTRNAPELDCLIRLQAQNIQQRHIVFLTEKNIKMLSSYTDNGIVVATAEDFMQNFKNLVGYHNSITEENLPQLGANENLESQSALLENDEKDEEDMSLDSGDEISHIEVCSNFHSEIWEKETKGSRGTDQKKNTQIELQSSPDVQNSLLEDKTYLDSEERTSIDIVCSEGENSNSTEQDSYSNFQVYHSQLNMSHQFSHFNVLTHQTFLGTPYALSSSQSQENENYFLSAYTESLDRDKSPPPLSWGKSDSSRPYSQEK
UniProt P04406: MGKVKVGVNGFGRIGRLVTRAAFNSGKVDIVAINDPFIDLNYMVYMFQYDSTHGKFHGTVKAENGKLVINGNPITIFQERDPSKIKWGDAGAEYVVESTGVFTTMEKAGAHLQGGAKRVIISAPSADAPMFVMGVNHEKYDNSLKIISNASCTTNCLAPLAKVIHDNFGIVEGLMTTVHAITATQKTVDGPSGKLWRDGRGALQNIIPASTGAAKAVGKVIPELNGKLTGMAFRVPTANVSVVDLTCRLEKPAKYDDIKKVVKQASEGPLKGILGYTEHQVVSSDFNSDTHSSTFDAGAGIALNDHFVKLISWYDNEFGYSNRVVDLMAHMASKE
UniProt Q99549: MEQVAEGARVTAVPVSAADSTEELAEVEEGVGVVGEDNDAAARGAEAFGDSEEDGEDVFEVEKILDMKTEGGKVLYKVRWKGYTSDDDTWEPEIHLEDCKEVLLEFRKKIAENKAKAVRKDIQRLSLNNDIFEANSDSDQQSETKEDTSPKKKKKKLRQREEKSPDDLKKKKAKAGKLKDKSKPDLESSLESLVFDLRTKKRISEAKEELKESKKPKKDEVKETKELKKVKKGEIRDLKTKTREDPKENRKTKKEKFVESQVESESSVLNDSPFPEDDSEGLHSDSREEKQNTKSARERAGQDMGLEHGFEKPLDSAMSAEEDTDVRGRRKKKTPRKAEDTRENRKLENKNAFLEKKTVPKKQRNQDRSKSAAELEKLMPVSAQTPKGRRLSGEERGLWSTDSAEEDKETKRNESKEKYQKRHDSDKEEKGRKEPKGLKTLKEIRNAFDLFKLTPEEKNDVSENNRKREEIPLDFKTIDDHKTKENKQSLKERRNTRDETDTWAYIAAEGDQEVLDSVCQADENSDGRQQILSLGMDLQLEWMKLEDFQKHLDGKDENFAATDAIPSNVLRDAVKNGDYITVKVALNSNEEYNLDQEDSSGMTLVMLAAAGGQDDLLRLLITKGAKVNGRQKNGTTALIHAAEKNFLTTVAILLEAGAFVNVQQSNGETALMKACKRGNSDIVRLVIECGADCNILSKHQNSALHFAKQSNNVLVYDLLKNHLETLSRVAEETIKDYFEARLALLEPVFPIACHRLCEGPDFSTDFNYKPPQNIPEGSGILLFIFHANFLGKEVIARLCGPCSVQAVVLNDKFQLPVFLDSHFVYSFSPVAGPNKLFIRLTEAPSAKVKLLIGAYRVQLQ

Row | binding [1] | binding [2] | binding [3] | binding [4] | Substance
1 | binds | binds | binds | – | heterochromatin protein 1 alpha (from UniProt P45973 1-191)
2 | – | – | – | binds | TASOR (from UniProt Q9UK61 1-1670)
3 | – | no binding | no binding | – | GAPDH (from UniProt P04406 1-335)
4 | binds | binds | binds | binds | M-phase phosphoprotein 8 (from UniProt Q99549 1-860)

Source: publication PMC9856275
